# Measured values reported in PubChem BioAssay AID540256 (National Center for Advancing Translational Sciences (NCATS), 2011).
# Values joined by “and” are separate entries in the source; they are usually repeats but may differ in a detail not shown here. Identical values can stand only once. Screen size: about 300,000 compounds; about 3,700 (1.2%) were called active. Inconclusive means that the source gave no clear call. Such entries were picked first, then a sample of the others. The call rests on the fitted dose curve; tested in HEK293 cells. Where the call is inconclusive, the potency comes from a doubtful curve fit.
# Assay: qHTS for Inhibitors of binding or entry into cells for Lassa Virus; further: nearly all actives have a fitted effect of over 50% in size
# Details: Lassa virus pseudotype entry inhibition, cell reporter; activity change, negative = inhibition: at 37.9 µM (top of the series) unless noted
# On the % scale 0 is the no-effect control and ±100 the full control effect; potency means the concentration at half of the fitted maximal effect.
Structure (SMILES),"activity change, negative = inhibition",Potency
Cc1cc2c(cc1Cl)N(C(=O)Nc1ccnc3ccccc13)CC2,inactive: -6.25%,
COc1ccc(/C=C/C(=O)Nc2cccc(S(=O)(=O)N3CCCC3)c2)cc1OC,,"inconclusive: 31.6 µM [inhibitor, single point]"
CC(C)(C)c1ccc(C(=O)Nc2ccc(C(=O)NCc3cccnc3)cc2)cc1,,"inconclusive: 11.2 µM [inhibitor, partial curve, poor fit]"
CCc1nc(SCC(=O)c2ccc3c(c2)OCCO3)c2ccccc2n1,,"inconclusive: 29.1 µM [inhibitor, single point]"
COc1ccc(CCNc2cc(C)nc3c(-c4ccccc4)cnn23)cc1OC,,active: 8.91 µM
COc1ccc(Cn2nc(C)n(N(C)c3ncc(C(F)(F)F)cc3Cl)c2=O)cc1,inactive: 1.91%,
CCCC(=O)NCCc1c2n(c3ccc(OC)cc13)CCCc1ccccc1-2,,"inconclusive: 20.6 µM [inhibitor, partial curve]"
NS(=O)(=O)c1ccc(N=Cc2c(O)[nH]c3ccc4ncsc4c23)cc1,,active: 4.99 µM and active: 7.05 µM
c1ccc2cc(OCCCn3ccnc3)ccc2c1,,"inconclusive: 35.5 µM [inhibitor, single point]"
Cc1ccc(C2NC(=O)c3c(sc4c3CCN(C)C4)N2)s1 (stereo not given),,"inconclusive: 14.6 µM [activator, partial curve]"
Cn1c(O)c(N=Nc2ccccc2[N+](=O)[O-])c2ccccc21,inactive: -2.12%,
CCCCC(=O)NC(c1ccc(N(C)C)cc1)c1ccc2cccnc2c1O (stereo not given),,"inconclusive: 3.55 µM [inhibitor, full curve, poor fit]"
Clc1ccccc1-c1nnc2sc(C3COc4ccccc4O3)nn12 (stereo not given),inactive: 11.1%,
COc1ccc(CNC(=O)c2ccc(-c3nc(CS(=O)c4ccc(C)cc4)c(C)o3)cc2)cc1 (stereo not given),inactive: -18.7% [at 46.1 µM],
COc1cccc2[nH]c(C(=O)NCc3ccc4c(c3)CCN4C(=O)c3ccc(F)cc3)cc12,,"inconclusive: 8.91 µM [inhibitor, partial curve]"
CCC(C)(C)n1nnnc1C(c1cccs1)N1CCN(c2nc3ccccc3s2)CC1 (stereo not given),,"inconclusive: 29.1 µM [inhibitor, single point]"
Cc1ccc2nc(NC(=O)C3CC3C)sc2c1 (stereo not given),,"inconclusive: 17.8 µM [inhibitor, single point]"
Cc1nc2cc(NCc3ccc(Cl)cc3)ccc2n1C,,"inconclusive: 14.1 µM [inhibitor, single point]"
Cc1[nH]nc(NNC(=O)c2ccccc2)c1[N+](=O)[O-],inactive: 2.38% [at 46.1 µM],
Cc1cc(C)c(S(=O)(=O)c2cccc(C)c2C)c(=O)[nH]1,inactive: -0.804%,
